One molecule from PMC3085955 (Journal of medicinal chemistry, 2011) can be followed below.

SMILES strings stand for the structures.

This experiment has as its system T. gondii RHΔhxgprt. The class given is cell-based, Toxoplasma gondii. The conditions noted are these: 1st infection cycle.

As to `CCC[C@@H]1C[C@@H](C(=O)N[C@@H]([C@H]2O[C@H](SC)[C@H](O)[C@@H](O)[C@H]2O)[C@H](C)Cl)N(C)C1` [Clindamycin], the apicoplast replication result is on record as “significantly impaired”.
